Measurements taken from the supplement of paper PMC3334620.
Whole data set: some 33,000 sequences, median “E-score (-0.5 to 0.5)” near -0.0034, cut for the highest 2% near 0.25. The list shows a part of the results.

biological target: T1, Yap3 (UniProt P38749); assay: PBM E-score (8-mer binding enrichment) (E-score (-0.5 to 0.5)); higher = stronger / more preferred TF binding; conditions: protein concentration: 100 nM; construct: GST-full length
T1 sequence: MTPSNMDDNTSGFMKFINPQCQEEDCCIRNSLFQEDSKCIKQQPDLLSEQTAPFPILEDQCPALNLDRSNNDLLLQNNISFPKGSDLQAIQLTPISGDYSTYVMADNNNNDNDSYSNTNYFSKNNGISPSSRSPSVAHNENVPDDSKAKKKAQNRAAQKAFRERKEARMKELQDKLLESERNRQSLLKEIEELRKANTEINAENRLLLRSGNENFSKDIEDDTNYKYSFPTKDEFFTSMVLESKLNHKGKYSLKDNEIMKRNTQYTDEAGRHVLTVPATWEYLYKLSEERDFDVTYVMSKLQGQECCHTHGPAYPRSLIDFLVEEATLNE
Protocol: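 Universal 'all 10-mer' protein binding microarrays (Agilent AMADID 015681) probed with GST-tagged S. cerevisiae TFs (full-length or DBD) made by in vitro transcription/translation (PURExpress), about 100-200 nM. Bound TF was detected with fluorescent anti-GST. Each ungapped 8-mer (which stands for itself and its reverse complement) is scored by the PBM enrichment score (E-score), a modified Wilcoxon-Mann-Whitney statistic from -0.5 to +0.5, computed with the Universal PBM Analysis Suite. Scale: above 0.35 generally sequence-specific binding.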

Sequence | PBM E-score
GCACCAGA | -0.181
GTCTAGAA | -0.0513
TATTTAGA | 0.211
CTGAAGGC | -0.267
CATCCCCG | -0.00703
CAAAATTC | 0.168
ACCCGGAA | 0.0401
AAAGCCCA | -0.0381
GAAAGTCA | 0.153
AAGAATTA | 0.172
ATGATAGC | 0.138
CCCGAAAC | 0.0241
ACGTATAT | 0.111
TGCCGACA | 0.0236
CCATTGTA | 0.138
TACAAGCA | 0.17
AATGCACT | 0.119
TGATGCAA | 0.00044
GACAAACA | 0.121
ATCTGGTC | 0.11
AATAATGA | 0.0556
GAAAATGA | 0.146
ATGCGAAT | 0.0303
TCTAAAGA | 0.188
CCTTAGCC | -0.0133

Sequence | PBM E-score
CGCGAGGC | 0.0882
AATAGATC | 0.08
ACTCCGGA | 0.114
CCAGTCAA | 0.00581
AACGGATA | 0.255
AACCTTAT | 0.0462
ACGGGCAC | -0.131
AGTCCACT | -0.124
AAGAAGGT | -0.0308
AAAAGTCC | 0.0841
CTACCGCC | -0.089
CTGCCAAA | 0.0344
CGATTCTA | -0.0732
AAGTCATC | -0.0947
AGAAGGCC | -0.206
AAGAACGG | 0.0183
GAATGCAA | 0.0622
ACCGGTAC | -0.261
AGACCAAG | 0.099
AGATAGGG | -0.116
CGATAAGC | -0.0233
TGGAGGAA | -0.114
GGTTCATA | 0.0305
CCCCCCGG | -0.5
AATCAAAC | 0.208

Sequence | PBM E-score
GGAAGTTA | 0.0744
ATTTCCCA | 0.239
ATAACACG | 0.137
AGGCATCC | -0.262
GTTGCTAA | 0.251
CGATCTAC | 0.0301
CCCTGTGA | -0.246
CGAACAGC | -0.214
CCTGTTAC | 0.187
CTGTGAAG | -0.00245
AGATCACA | 0.0306
AGGCAGAA | -0.0515
CCCGAAAG | -0.0267
CATGTGGC | 0.0138
AAGGCTAT | -0.114
ATTGCAAG | 0.0639
GGCGCGCC | 0.0405
ACTACAAT | 0.182
AGAGATCC | -0.00859
CCACTTAC | 0.257
CTAGCCGC | -0.00419
ACACGAGT | 0.168
AGAGCAAG | 0.171
CGGAATTA | 0.187
CGTCCATA | 0.076

Sequence | PBM E-score
GCGGTATA | 0.0717
GGCCACCA | -0.0476
AAAGGGGG | -0.272
TTGACAAA | 0.219
ACCTGATA | 0.195
CCCGTTCA | -0.106
CTATATAC | 0.367
CCAACAGG | -0.153
ACGATCCC | -0.305
CCAAGCGG | -0.262
GTGGCTAA | 0.0934
ACAATCGT | -0.0198
GGTACTAA | 0.0733
GGGTTACC | -0.0994
AACAGATC | 0.18
ACGCGCCC | -0.0778
GTTGGCTA | 0.12
CCAGTCCG | -0.267
CCATTATC | 0.103
ATAACGGA | 0.205
AGGCTTAT | 0.031
ATAGCCTA | -0.078
AATACAGG | 0.213
GCTGCTAA | 0.00183
CGTGCAAC | 0.0468

Sequence | PBM E-score
GTCTTAGA | -0.128
CGCTCTCC | -0.284
ACATGAAT | 0.0119
CCTGGGGC | -0.404
AACTGCTC | -0.0019
AGATTCCC | -0.0449
CTATAACA | -0.0866
ACGATGGG | -0.079
CCCCTCCA | -0.228
CTCCGCAC | -0.227
GCCCTCAC | -0.222
TAATCAGA | 0.101
CATTTCAC | 0.204
CATCTGCC | 0.00952
CTGTTGCC | -0.0165
GACTTTTA | -0.0284
ATAGACCG | -0.0339
GGGTGAAC | -0.0926
CTGTTCGA | -0.192
CTAACGAA | -0.075
ATTCCTCC | -0.0883
AAGTGATT | 0.183
GAAATCCA | 0.0886
CTGCCGTC | -0.168
CAGCTGGG | -0.158

Sequence | PBM E-score
GGTTAATA | 0.0683
CTTCGCTC | -0.0997
ATACGCGG | -0.00618
AGGGACTG | -0.168
ATAGCCCG | -0.28
GCAAAAGA | 0.0607
ACGATTAG | 0.159
GTGTTTAA | 0.197
CAATTGTA | 0.0214
ATCAGATC | -0.0788
GATGGTAC | 0.0934
ACAACCCC | -0.123
GCATAGCC | -0.266
ATCAAACC | 0.179
AGACTACC | 0.0396
ACGTTCAG | -0.093
GCGGTACA | -0.0254
ATCCAGTC | 0.0451
AAGCGGTC | -0.0918
AGCACACT | 0.0288
CGTGGATA | -0.0137
AACGAGTA | 0.19
GCCCACCC | -0.0177
CTGGGGTA | -0.059
CTGTTCGC | 0.0298

Taken from above:
Entry for ATCAGATC under PBM E-score: -0.0788
Entry for GATGGTAC under PBM E-score: 0.0934
Entry for ATACGCGG under PBM E-score: -0.00618
Entry for CAATTGTA under PBM E-score: 0.0214
Entry for CTGTTCGC under PBM E-score: 0.0298

(next part)

Sequence | PBM E-score
GTTACTAA | 0.339
ATGGCCAT | 0.114
AATCGCCT | 0.0192
GTCGGGTA | 0.0387
GGGTCTAA | -0.125
CTTAGATA | 0.123
ATACCGTA | 0.0777
GATGGGGC | -0.261
CGACCTAC | -0.119
ACCCGCGC | 0.179
CCAAACTC | 0.0795
AACGCTCG | 0.0181
CCGTACAG | 0.0119
CGGGGAAC | -0.117
AAAATCGC | 0.118
GGCCTACA | 0.0088
ATTTACTA | 0.201
GTATATGA | 0.144
ACGGCAGG | -0.299
CTCTCCCA | -0.109
GTTGGAGA | 0.0135
CCGGATAA | 0.0988
